Reference: PubChem BioAssay AID1224828 (NIAID, 2016)

Aim: 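Find genes required for NF-kappaB p65 moving into the nucleus after LPS in mouse macrophages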 (primary screen)
Cells: mouse RAW264.7 G9 macrophage reporter cells (GFP-p65, Tnf promoter-mCherry)
Knock-down reagent: siRNA pool against mouse genes, 100 nM
Timing: 2 days siRNA transfection, then 40 min LPS before fixation
Treatment: LPS (Salmonella minnesota R595) at 10 ng/ml
Read-out: 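Microscopy ratio of nuclear to perinuclear-ring GFP-p65 signal, scaled to the plate median; gene score is the average of two replicate robust z-scores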
Reading the numbers: p65 translocation robust z-score: higher = more nuclear NF-kappaB p65 after LPS than the plate median; nuclear/cytoplasmic p65 ratio: higher = more nuclear NF-kappaB p65
Active means: 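Active if robust z is above 3.3 (negative regulators) or below -1.56, the Tlr4 control median (positive regulators); activity score 50 or more; control wells not called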
Meaning of the calls: active = hit (p65 shift raised or lowered); inactive = no clear change
In all, the deposit lists about 17,000 reagents; below is an unselected part. In the full data, 762 (4.5%) got an active call. 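Active calls include both raised and lowered p65 entry, mostly lowered; wells with fewer than 50 cells lack a z-score.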 Raw values are not corrected between plates.

With knock-down of Rwdd1 (RWD domain containing 1), the record shows nuclear/cytoplasmic p65 ratio, rep 1 = 1.6; nuclear/cytoplasmic p65 ratio, rep 2 = 1.13; low cell count flag fewer than 50 cells per well; well left out of scoring; inactive.
After knock-down of Krtap13 (keratin associated protein 13) the results were p65 translocation robust z-score -1.09; nuclear/cytoplasmic p65 ratio, rep 1 = 1.41; nuclear/cytoplasmic p65 ratio, rep 2 = 1.27; low cell count flag enough cells to score; inactive.
Tmbim4 (transmembrane BAX inhibitor motif containing 4) scored p65 translocation robust z-score 0.78; nuclear/cytoplasmic p65 ratio, rep 1 = 1.55; nuclear/cytoplasmic p65 ratio, rep 2 = 1.65; low cell count flag enough cells to score; inactive.
D830039M14Rik (RIKEN cDNA D830039M14 gene) scored p65 translocation robust z-score -0.04; nuclear/cytoplasmic p65 ratio, rep 1 = 1.56; nuclear/cytoplasmic p65 ratio, rep 2 = 1.55; low cell count flag enough cells to score; inactive.

As entered above:
Tmbim4 (transmembrane BAX inhibitor motif containing 4), activity call = inactive
For “p65 translocation robust z-score”, Krtap13 (keratin associated protein 13) reads -1.09

Next reagents:
Knock-down of Scd1 (stearoyl-Coenzyme A desaturase 1) came out at: p65 translocation robust z-score 0.28; nuclear/cytoplasmic p65 ratio, rep 1 = 1.36; nuclear/cytoplasmic p65 ratio, rep 2 = 1.74; low cell count flag enough cells to score; inactive.
Depletion of Otp (orthopedia homeobox) gave: nuclear/cytoplasmic p65 ratio, rep 1 = 1.1; nuclear/cytoplasmic p65 ratio, rep 2 = 1.21; low cell count flag fewer than 50 cells per well; well left out of scoring; inactive.
For Yae1d1 (Yae1 domain containing 1), the entry reads p65 translocation robust z-score 0.83; nuclear/cytoplasmic p65 ratio, rep 1 = 1.78; nuclear/cytoplasmic p65 ratio, rep 2 = 1.45; low cell count flag enough cells to score; inactive.
After knock-down of Mgat4b (mannoside acetylglucosaminyltransferase 4, isoenzyme B), the record shows p65 translocation robust z-score -2.12; nuclear/cytoplasmic p65 ratio, rep 1 = 1.45; nuclear/cytoplasmic p65 ratio, rep 2 = 1.18; low cell count flag enough cells to score; active.
Smim5 (small integral membrane protein 5) gave nuclear/cytoplasmic p65 ratio, rep 1 = 1.18; nuclear/cytoplasmic p65 ratio, rep 2 = 1.21; low cell count flag fewer than 50 cells per well; well left out of scoring; inactive.
Depletion of Alx4 (aristaless-like homeobox 4) gave: p65 translocation robust z-score -0.48; nuclear/cytoplasmic p65 ratio, rep 1 = 1.61; nuclear/cytoplasmic p65 ratio, rep 2 = 1.48; low cell count flag enough cells to score; inactive.
Against Dao (D-amino acid oxidase) the deposit lists p65 translocation robust z-score -0.44; nuclear/cytoplasmic p65 ratio, rep 1 = 1.68; nuclear/cytoplasmic p65 ratio, rep 2 = 1.3; low cell count flag enough cells to score; inactive.
Naprt (nicotinate phosphoribosyltransferase) showed p65 translocation robust z-score 0.54; nuclear/cytoplasmic p65 ratio, rep 1 = 1.47; nuclear/cytoplasmic p65 ratio, rep 2 = 1.65; low cell count flag enough cells to score; inactive.
